Results are given in words; binding and its absence hold for the method and conditions named. Binding seen in cells or lysates may run through a third protein. Some entries that bind do so weakly or less than the wild type.
Key:
[1] = molecular target: Endogenous tetraspanin 3 (TSPAN3) of A549 cells (human (endogenous in A549)) (UniProt O60637); assay: co-IP; A549 cell lysates, endogenous proteins; immunoprecipitated with anti-TSPAN3 antibody or control IgG, western blot of the partner
Wild-type GFP-TSPAN3 = Wild-type GFP-TSPAN3 (UniProt O60637); assay: co-IP; A549 cells, 48 h after transfection of wild-type GFP-TSPAN3 or TSPAN3-ΔLEL; lysates immunoprecipitated with anti-GFP antibody, western blot of the partner
[2] = molecular target: Myc-FLAG-TSPAN3 (tetraspanin 3), ectopically expressed from pCMV6-Myc-FLAG-TSPAN3 (UniProt O60637); assay: co-IP; A549 cells, 48 h after transfection of pCMV6-Myc-FLAG-TSPAN3; lysates immunoprecipitated with anti-FLAG antibodies or control IgG, western blot of the partner

Protein sequences, listed by entry. Tags and fused reporters are not part of them. Lines headed by an entry give the natural chain unless they say otherwise; changes in a name come on top.
UniProt O60637: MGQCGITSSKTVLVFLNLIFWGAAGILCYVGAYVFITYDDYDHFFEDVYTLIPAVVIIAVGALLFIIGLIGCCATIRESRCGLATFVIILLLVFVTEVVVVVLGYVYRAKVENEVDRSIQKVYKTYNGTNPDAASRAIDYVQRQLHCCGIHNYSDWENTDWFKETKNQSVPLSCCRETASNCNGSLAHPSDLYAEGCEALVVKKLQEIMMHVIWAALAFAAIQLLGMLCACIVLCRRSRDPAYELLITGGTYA
UniProt P62491: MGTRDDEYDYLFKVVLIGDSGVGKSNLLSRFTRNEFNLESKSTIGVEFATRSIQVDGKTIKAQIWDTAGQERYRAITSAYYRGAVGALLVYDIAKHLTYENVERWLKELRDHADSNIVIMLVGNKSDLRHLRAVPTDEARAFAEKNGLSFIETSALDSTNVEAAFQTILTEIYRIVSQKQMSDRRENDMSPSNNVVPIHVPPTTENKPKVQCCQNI
UniProt P05556: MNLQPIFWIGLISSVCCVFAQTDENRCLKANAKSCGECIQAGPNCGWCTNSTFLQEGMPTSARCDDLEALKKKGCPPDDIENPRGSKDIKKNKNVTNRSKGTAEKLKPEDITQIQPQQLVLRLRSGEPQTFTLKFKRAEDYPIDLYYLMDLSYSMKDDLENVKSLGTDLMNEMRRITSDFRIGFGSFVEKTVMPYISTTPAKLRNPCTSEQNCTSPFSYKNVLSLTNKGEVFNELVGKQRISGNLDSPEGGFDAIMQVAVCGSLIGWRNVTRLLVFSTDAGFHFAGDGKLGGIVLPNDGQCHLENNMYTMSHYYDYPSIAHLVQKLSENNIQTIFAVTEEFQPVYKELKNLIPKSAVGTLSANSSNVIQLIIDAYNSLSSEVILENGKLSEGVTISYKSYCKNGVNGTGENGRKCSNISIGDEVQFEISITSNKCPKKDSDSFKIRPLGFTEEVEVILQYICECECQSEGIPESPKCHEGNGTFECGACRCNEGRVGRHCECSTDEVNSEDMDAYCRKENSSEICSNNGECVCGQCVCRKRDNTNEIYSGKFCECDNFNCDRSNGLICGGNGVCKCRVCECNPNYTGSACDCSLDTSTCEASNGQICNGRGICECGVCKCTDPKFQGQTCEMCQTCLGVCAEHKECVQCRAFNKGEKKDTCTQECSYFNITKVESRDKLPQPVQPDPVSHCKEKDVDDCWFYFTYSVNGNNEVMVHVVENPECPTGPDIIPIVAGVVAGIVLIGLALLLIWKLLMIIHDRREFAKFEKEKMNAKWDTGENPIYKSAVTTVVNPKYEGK

| binding [1] | binding (Wild-type GFP-TSPAN3) | binding [2] | Substance |
| --- | --- | --- | --- |
| binds | binds | binds | Ras-related protein Rab-11a, endogenous in A549 cells (from UniProt P62491 1-216) |
| binds | binds | binds | β1 integrin, endogenous in A549 cells (from UniProt P05556 21-798) (receptor) |

Source: paper PMC11428915
